Results of single-concentration screens

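Assay of Toxoplasma gondii numbers, read through their beta-galactosidase reporter with a colour substrate. Concentration: 50 µM. Higher reads as fewer parasites (inferred from which compounds were picked for retests). Of about 18,000 compounds tested this way, about 170 (0.94%) reached 50% or more in at least one test.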

The filed quantity is “Percent Effect” (%). How 0% and 100% were set is not recorded. Most values in the screen are low, and negative values occur. Compounds were drawn at random from those tested, without regard to their results.

compound | percent effect
CNCc1ccc(Cn2cncn2)cc1 | 8.878%
CC(C)(C)SCC(=O)Nc1ccc(CS(N)(=O)=O)cc1 | 0.2412%
O=C(CCc1ccco1)Nc1cnccc1O | -22.28%
O=C(NCCCc1nnc2ccccn12)C1CCCN1 (stereo not given) | 4.424%
CC(C)[C@H]1CN(CCC(=O)NC2CCCC2)C[C@@H]1N | 3.461%
NC1CCN(Cc2ccc(F)c(F)c2)CC1 | 17.44%
CC(C)NC1CCCc2cccnc21 (stereo not given) | 1.537%
CN(C)C(=O)C1CCCN1C(=O)c1cccc(C#N)c1 (stereo not given) | 1.178%
O=C(CCNCc1cccnc1)NCc1ccccc1 | 5.823%
O=C1CSc2ccccc2N1CCCn1cnnn1 | 6.615%
OCCOc1ccc(NC2CCCSC2)cn1 (stereo not given) | -2.619%
COc1cccc(CNC(=O)N2CCCC(CO)C2)c1 (stereo not given) | 0.788%
CC(=O)NC1CCCN(c2cncc(Cl)n2)C1 (stereo not given) | 5.299%
CCCN1CCN(CC(=O)Nc2ccc(Cl)cn2)CC1 | -13.23%
COc1ccccc1C(O)CN (stereo not given) | -7.36%
CCc1n[nH]c(C(=O)NCCNc2cccnc2)c1C | 12.42%
CC(=O)N(Cc1noc(C2CC2)n1)C1CCNC1 (stereo not given) | 14.45%
Cn1nccc1[C@H]1OCC[C@@H]1NC(=O)C1CC=CC1 | -6.307%
CC1(C)CCNCC[S+]1[O-] (stereo not given) | -5.447%
OCc1cc(C(F)(F)F)on1 | 1.298%
Cc1ccc(NC(=O)C2CC2)c(CN(C)C)c1 | 1.701%
CC(C#N)N(C)S(=O)(=O)c1cccc2ncccc12 (stereo not given) | 1.107%
O=C(NC1=NCCS1)c1cccnc1OCC(F)(F)F | -10.46%
CC(C)C(=O)NC1(C#N)CCCC1 | -15.26%
O=C(Nc1ccncc1)N[C@H](CO)Cc1ccccc1 | -9.532%
CS(=O)(=O)c1ccc(OCCN)cc1 | -6.751%
O=C(NCCNCc1ccc(F)cc1)c1ccco1 | 2.416%
NC(=O)c1ccc(CNC(=O)OCC(F)(F)F)cc1 | -16.8%
Cc1nc(C)c(CC(=O)Nc2nccs2)c(=O)[nH]1 | -7.525%
CN1CCN(C(=O)C2CC2)c2ccccc2C1 | 0.7415%
O=C(CS(=O)(=O)Cc1cccc(Cl)c1)NCC1CC1 | -16.53%
COCC(C)(O)C(=O)N(C)Cc1ccccc1 (stereo not given) | -8.767%
CCN(CC)C(=O)c1cnn(C)c1-n1cccc1 | -20.78%
COc1ccccc1C(=O)CN | 5.143%
COCCCOC1CN(C(=O)c2ccc(Cl)cn2)C1 | 26%
CC(O)CNC1CCS(=O)(=O)CC1 (stereo not given) | 7.311%
CN(C)C(=O)c1ccc(S(=O)(=O)NC2CCCCC2)s1 | 9.143%
CCN1C(=O)CC(NCc2ccc3c(c2)OCO3)C1=O (stereo not given) | 12.47%
NCC(O)c1ccc(Cl)s1 (stereo not given) | -6.368%
CCC(=O)NC(c1ccccc1OC)c1nccn1C (stereo not given) | -1.67%
COc1cc(Br)c(CN(C)CC(=O)N(C)C)c(OC)c1 | 18.45%
CS(=O)(=O)N1CCCC(NC(=O)NC2CC2)C1 (stereo not given) | -25.3%
CNC(=O)C1CN(CCc2cccs2)CCO1 (stereo not given) | -15.44%
NS(=O)(=O)c1cccc(NC(=O)C23CCC(CC2)C3)c1 | -13.48%
Cc1cc(NC(=O)NCC[S+]([O-])C(C)(C)C)no1 (stereo not given) | -0.7571%
NCC1CCN(Cc2ccsc2)CC1 | -5.62%
O=C(NCCOc1ccc2c(c1)OCO2)C1CCCO1 (stereo not given) | 1.577%
O=C(Nc1ccc(NC(=O)C2CC2)nc1)c1ccsc1 | -4.934%
Cc1csc2nc(CSCC(=O)NC3CC3)cc(=O)n12 | 4.767%
COCC(=O)N(C)c1ccccc1 | -12.75%
CC(OCCCN)c1ccccc1 (stereo not given) | -3.985%
CN(C)CC1(O)CCCN(CC(C)(C)C)C1=O (stereo not given) | 2.729%
Cn1ccnc1SCCNC(=O)c1c[nH]c(=O)[nH]1 | 14.84%
OCc1ccc(CO)cc1 | 2.744%
N#Cc1c(N)sc2c1CCS(=O)(=O)C2 | -8%
COCC(NC(=O)c1c(C)cc(C)cc1C)C(N)=O (stereo not given) | 2.575%
CN1CCN(CCOc2ccc(C#N)cc2)CC1 | -5.904%
NCCCC(=O)N1CCc2ccccc2C1 | -7.117%
OCC(O)CSCc1ncc(-c2cccc(Cl)c2)o1 (stereo not given) | 9.953%
CC1CCN(CCCNC(=O)c2ccco2)CC1 | 11.53%
O=C1CC(CO)C2(CCOCC2)CN1 (stereo not given) | -10.87%
Cc1cccc(CCN)c1 | -13.7%
O=C1CC2(CCN(C(=O)CCc3cccs3)C2)C(=O)N1 (stereo not given) | 5.441%
CCc1nc(C(C)N)n[nH]1 (stereo not given) | 27.34%
OC1(CNC2CC2)CCC1 | -8.861%
Cc1cccc(-c2nc(N)n(C(=O)c3cccs3)n2)c1 | 0%
CCC(N)C(=O)N1CCN(c2ccc(F)cc2Cl)CC1 (stereo not given) | 22.72%
CSCC(=O)N1CCN(Cc2nccn2C)CC1 | 0.586%
COCCn1cncc1CNC(=O)C1(C)CCCCO1 (stereo not given) | 15.33%
CC1(C)CS(=O)(=O)CCN1Cc1ccc(Cl)cc1F | 15.68%
CC(=O)N[C@H]1CCN(CCn2c(=O)cc(C)[nH]c2=O)C1 | -3.725%
COc1ccnc(CSc2n[nH]c(=O)n2C)c1OC | -11.9%
COCC(C)S(=O)(=O)N1CCCCC1 (stereo not given) | 6.357%
CN(C(=O)COCC(F)(F)F)C1CCS(=O)(=O)C1 (stereo not given) | 1.974%
CNC(=O)CCN(C)c1cc(C(C)C)nc2ccnn12 | 14.48%
CCn1cc(COC2CCNC2)cn1 (stereo not given) | 0%
c1ccc(CN2CCCN(c3ccccn3)CC2)nc1 | -1.076%
CC1(C)CN(c2ccc3nnnn3n2)C1(C)C | 1.701%
OC1CCc2[nH]ncc2C1 (stereo not given) | 14.43%
CC(C)(C)OC(=O)Nc1ccc(C(N)=O)cc1 | -3.192%
O=C(Cn1cncn1)Nc1ccc(I)cn1 | -7.902%
CS(=O)(=O)CCSCC(=O)Nc1ccccc1 | -3.843%
O=C(c1cc(Cl)c[nH]1)N1CCOC(c2cccs2)C1 (stereo not given) | -9.862%
NC(=O)C1CSCCN1CCCF (stereo not given) | 1.592%
CNCCN1C(=O)c2ccccc2C1=O | -11.33%
CN(C)S(=O)(=O)NCCNc1ccc2ccccc2n1 | -12.12%
CC(C)OC1CCC(N)CC1 (stereo not given) | 2.579%
CC(C)N1CCC(NC(=O)C(C)(C)C)CC1 | -10.86%
CNC(=O)CCNC(=O)NCCc1ccccc1 | -19.9%
Cc1cc(C(N)=O)ccc1I | -10.11%
CN(C)c1cc([C@H]2C[C@@H](O)C2)nc(N)n1 | 9.281%
CC(NC(=O)c1ccc(C(C)(C)C)cc1)C(N)=O (stereo not given) | -3.679%
O=C(CNCc1ccco1)Nc1ccccc1 | -8.816%
CCn1cc(S(=O)(=O)N[C@@H]2C[C@@H]3OCC[C@@H]32)cn1 | -0.02843%
COc1cccc(OC)c1OCCCN1CCNCC1 | 6.402%
CCC(=O)N1CCN(C(=O)Cc2ccc(Br)s2)CC1 | -12.14%
CSc1ccc(CNCC2(C(N)=O)CCOCC2)cc1 | 4.162%
CC(C)(C)OC(=O)N1CC(O)CC(F)(F)C1 (stereo not given) | 37.4%
OCCCSc1nnc(C2CC2)n1C1CC1 | -6.273%
O=C(NCC1(O)CCNC1)c1ccc2c(c1)OCO2 (stereo not given) | 0.7856%
COc1ccc(S(=O)(=O)N2CC=C(C)CC2)cc1 | -1.348%

Repeated from the top, 11 entries:

{"compound": "CNCc1ccc(Cn2cncn2)cc1", "percent effect": 8.878}
{"compound": "CC(C)(C)SCC(=O)Nc1ccc(CS(N)(=O)=O)cc1", "percent effect": 0.2412}
{"compound": "O=C(CCc1ccco1)Nc1cnccc1O", "percent effect": -22.28}
{"compound": "O=C(NCCCc1nnc2ccccn12)C1CCCN1", "stereo": "stereo not given", "percent effect": 4.424}
{"compound": "CC(C)[C@H]1CN(CCC(=O)NC2CCCC2)C[C@@H]1N", "percent effect": 3.461}
{"compound": "NC1CCN(Cc2ccc(F)c(F)c2)CC1", "percent effect": 17.44}
{"compound": "CC(C)NC1CCCc2cccnc21", "stereo": "stereo not given", "percent effect": 1.537}
{"compound": "CN(C)C(=O)C1CCCN1C(=O)c1cccc(C#N)c1", "stereo": "stereo not given", "percent effect": 1.178}
{"compound": "O=C(CCNCc1cccnc1)NCc1ccccc1", "percent effect": 5.823}
{"compound": "O=C1CSc2ccccc2N1CCCn1cnnn1", "percent effect": 6.615}
{"compound": "OCCOc1ccc(NC2CCCSC2)cn1", "stereo": "stereo not given", "percent effect": -2.619}

From ChEMBL document CHEMBL3988442, “University of Dundee, Small-Polar-MMV Screening Library” (2021).